Results are given in words; binding and its absence hold for the method and conditions named. Binding seen in cells or lysates may run through a third protein. Some binding calls cover weakened binding; strength is not graded here.
Legend:
[1] = molecular target: human FGFR3, kinase-dead (K508M), transiently expressed in HeLa cells (human) (UniProt P22607); experiment: co-IP; HeLa cells transiently expressing FGFR3 constructs, endogenous TAK1; 1 mg total lysate, 1% Nonidet P-40 lysis buffer, protein A-Sepharose, immunoblot
[2] = molecular target: human FGFR3, wild-type, transiently expressed in HeLa cells (human) (UniProt P22607); experiment: as above
[3] = molecular target: human FGFR3, constitutively active (K650E), transiently expressed in HeLa cells (human) (UniProt P22607); experiment: as above
[4] = molecular target: FGFR3, wild-type, overexpressed in MGHU3 bladder cancer cells (human) (UniProt P22607); experiment: co-IP; MGHU3 bladder cancer cells transfected with wild-type FGFR3, endogenous TAK1; 1 mg total lysate, 1% Nonidet P-40 lysis buffer, protein A-Sepharose, immunoblot
[5] = molecular target: FGFR2, overexpressed in HEK293 cells (UniProt P21802); experiment: co-IP; HEK293 cells overexpressing FGFR1, -2 or -4, endogenous TAK1; 1 mg total lysate, Dynabeads instead of protein A-sepharose, no preclear step, immunoblot
[6] = molecular target: human FGFR1, full-length ORF in pcDNA3.1, overexpressed in HEK293 cells (human) (UniProt P11362); experiment: as above
[7] = molecular target: FGFR4, overexpressed in HEK293 cells (UniProt P22455); experiment: as above
[8] = molecular target: FGFR3 Y373C, endogenous, KMS-11 multiple myeloma cells (human (endogenous in KMS-11)) (UniProt P22607); experiment: co-IP; endogenous FGFR3 and TAK1 in LP1 and KMS-11 multiple myeloma cells; 1 mg total lysate, 1% Nonidet P-40 lysis buffer, protein A-Sepharose, immunoblot
[9] = molecular target: FGFR3, endogenous wild-type, LP1 multiple myeloma cells (human (endogenous in LP1)) (UniProt P22607); experiment: as above

Amino acid sequences for entries named in this document (tags omitted). A change or cut given only in a name is not applied to a line headed by its entry. Chains listed by the source or under a name are the forms on record and can include a tag or linker. Residues count along the entry.
FGFR3, endogenous wild-type, LP1 multiple myeloma cells (human (endogenous in LP1)) (P22607, residues 23-806): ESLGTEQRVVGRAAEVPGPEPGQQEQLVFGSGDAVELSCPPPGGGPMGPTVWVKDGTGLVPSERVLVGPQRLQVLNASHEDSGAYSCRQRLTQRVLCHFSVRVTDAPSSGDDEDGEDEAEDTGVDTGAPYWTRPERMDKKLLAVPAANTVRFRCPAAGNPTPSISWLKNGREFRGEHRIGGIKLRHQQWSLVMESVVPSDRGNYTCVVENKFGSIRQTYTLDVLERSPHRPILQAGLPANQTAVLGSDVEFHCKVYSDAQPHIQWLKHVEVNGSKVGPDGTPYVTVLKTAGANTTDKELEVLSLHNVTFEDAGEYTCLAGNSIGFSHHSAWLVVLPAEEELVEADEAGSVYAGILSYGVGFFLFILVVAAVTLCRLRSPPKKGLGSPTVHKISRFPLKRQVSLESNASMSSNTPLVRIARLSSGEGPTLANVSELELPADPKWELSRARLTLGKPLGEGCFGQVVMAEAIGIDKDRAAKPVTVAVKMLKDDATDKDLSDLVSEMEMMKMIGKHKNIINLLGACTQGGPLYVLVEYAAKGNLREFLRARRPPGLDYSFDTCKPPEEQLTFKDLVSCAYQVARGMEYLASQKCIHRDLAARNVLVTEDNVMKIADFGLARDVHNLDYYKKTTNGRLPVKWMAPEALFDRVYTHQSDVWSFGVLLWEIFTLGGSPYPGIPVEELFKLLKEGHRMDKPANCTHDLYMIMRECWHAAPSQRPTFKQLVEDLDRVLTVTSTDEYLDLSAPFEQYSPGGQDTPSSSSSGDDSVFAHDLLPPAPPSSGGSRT
human FGFR3, kinase-dead (K508M), transiently expressed in HeLa cells (P22607, form named): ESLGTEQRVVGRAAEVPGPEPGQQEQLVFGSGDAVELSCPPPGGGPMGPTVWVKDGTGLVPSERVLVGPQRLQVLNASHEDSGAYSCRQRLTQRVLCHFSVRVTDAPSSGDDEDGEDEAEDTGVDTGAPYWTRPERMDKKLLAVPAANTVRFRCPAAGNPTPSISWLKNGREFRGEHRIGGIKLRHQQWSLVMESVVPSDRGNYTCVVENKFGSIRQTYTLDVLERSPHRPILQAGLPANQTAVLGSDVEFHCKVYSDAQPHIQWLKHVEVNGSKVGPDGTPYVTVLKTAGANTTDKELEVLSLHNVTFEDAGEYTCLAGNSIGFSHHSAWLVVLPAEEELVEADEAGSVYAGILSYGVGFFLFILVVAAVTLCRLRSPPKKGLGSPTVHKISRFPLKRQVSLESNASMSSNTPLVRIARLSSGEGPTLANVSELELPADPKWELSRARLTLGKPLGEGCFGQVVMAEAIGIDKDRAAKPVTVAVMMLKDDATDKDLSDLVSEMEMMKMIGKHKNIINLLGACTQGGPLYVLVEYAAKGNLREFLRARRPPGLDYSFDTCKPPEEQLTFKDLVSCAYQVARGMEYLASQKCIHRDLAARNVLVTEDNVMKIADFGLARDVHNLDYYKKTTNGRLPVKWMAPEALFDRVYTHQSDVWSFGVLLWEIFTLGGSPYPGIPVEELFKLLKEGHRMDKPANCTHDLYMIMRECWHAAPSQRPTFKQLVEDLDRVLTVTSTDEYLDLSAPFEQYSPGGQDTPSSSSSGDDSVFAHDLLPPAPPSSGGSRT
human FGFR3, constitutively active (K650E), transiently expressed in HeLa cells (P22607, form named): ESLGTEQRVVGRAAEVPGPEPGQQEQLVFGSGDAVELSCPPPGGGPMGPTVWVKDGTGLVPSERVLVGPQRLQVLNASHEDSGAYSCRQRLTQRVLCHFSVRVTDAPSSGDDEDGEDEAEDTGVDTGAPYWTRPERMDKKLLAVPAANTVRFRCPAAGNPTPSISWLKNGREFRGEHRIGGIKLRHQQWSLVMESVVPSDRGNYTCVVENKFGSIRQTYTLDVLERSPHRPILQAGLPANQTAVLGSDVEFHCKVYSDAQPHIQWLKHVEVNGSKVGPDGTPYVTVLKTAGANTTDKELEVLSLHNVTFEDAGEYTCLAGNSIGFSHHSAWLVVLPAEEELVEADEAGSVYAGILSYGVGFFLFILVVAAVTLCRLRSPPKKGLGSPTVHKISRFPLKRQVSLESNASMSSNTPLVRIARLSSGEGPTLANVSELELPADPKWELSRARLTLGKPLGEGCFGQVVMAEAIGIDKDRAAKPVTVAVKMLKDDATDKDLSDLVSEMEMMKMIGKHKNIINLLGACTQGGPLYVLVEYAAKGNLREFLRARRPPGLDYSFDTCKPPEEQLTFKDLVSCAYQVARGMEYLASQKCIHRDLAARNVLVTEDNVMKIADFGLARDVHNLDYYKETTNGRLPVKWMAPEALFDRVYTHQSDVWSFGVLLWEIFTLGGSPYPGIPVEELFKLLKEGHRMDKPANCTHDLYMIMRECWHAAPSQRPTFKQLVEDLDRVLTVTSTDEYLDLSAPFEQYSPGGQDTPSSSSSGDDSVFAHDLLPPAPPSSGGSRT
FGFR3 Y373C, endogenous, KMS-11 multiple myeloma cells (human (endogenous in KMS-11)) (P22607, form named): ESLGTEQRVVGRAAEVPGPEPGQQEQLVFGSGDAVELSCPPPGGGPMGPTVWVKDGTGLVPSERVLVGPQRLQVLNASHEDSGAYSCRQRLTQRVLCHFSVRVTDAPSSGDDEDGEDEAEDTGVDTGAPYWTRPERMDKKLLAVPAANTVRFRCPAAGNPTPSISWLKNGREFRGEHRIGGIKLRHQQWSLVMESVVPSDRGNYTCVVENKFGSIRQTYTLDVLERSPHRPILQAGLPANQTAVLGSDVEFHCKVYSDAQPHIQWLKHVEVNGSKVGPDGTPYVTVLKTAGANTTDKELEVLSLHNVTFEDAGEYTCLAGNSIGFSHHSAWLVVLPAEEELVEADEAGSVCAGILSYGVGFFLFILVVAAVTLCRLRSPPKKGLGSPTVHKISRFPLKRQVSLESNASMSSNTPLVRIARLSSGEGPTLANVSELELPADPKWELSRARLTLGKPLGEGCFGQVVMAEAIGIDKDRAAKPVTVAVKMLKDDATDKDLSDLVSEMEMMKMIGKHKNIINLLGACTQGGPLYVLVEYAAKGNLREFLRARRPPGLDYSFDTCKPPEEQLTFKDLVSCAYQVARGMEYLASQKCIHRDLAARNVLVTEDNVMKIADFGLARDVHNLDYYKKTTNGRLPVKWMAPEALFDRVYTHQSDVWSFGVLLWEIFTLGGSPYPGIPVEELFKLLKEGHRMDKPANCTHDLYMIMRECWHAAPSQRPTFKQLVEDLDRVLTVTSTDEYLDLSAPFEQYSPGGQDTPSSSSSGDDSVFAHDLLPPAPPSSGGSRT
UniProt P21802, residues 22-821: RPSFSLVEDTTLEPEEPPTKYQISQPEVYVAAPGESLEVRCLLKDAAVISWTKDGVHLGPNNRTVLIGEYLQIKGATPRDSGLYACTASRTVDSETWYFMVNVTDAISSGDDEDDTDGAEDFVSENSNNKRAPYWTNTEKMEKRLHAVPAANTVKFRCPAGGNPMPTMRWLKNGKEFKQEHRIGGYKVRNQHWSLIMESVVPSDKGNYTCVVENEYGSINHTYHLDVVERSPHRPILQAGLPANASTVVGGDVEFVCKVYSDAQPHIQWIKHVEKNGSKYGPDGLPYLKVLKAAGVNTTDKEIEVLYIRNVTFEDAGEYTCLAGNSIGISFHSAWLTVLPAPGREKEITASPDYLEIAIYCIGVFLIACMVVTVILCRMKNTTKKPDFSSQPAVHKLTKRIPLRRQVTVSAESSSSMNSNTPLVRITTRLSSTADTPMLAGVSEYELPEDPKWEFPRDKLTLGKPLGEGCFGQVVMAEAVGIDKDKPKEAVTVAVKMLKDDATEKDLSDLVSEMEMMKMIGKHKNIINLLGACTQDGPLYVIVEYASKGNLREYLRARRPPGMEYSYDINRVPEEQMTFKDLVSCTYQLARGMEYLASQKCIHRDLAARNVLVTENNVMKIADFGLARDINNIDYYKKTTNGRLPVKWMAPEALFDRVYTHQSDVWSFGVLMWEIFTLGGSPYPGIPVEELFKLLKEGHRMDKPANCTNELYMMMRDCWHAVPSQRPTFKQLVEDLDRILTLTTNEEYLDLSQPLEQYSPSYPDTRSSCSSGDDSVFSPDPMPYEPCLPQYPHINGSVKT
UniProt P11362, residues 22-822: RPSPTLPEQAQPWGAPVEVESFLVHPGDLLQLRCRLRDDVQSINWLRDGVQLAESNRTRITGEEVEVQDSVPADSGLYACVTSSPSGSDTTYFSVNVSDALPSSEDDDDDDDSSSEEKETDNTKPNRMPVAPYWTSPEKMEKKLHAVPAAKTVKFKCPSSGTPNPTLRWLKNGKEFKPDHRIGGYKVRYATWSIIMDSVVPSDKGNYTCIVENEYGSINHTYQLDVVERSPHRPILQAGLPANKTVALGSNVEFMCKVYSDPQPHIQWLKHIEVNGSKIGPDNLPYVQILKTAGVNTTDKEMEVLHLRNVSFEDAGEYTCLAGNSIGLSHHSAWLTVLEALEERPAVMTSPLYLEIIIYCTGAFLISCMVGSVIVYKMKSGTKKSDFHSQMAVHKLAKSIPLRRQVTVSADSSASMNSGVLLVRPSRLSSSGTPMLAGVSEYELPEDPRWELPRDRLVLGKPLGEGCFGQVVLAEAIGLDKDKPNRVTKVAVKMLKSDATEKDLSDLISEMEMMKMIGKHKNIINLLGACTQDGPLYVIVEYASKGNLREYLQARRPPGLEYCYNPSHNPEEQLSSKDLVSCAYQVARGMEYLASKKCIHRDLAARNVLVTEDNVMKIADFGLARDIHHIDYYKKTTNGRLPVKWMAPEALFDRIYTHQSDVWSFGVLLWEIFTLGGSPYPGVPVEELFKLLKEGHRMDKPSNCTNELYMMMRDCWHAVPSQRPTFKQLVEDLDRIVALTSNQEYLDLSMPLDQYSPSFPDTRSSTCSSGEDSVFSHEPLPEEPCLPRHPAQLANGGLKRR
UniProt P22455, residues 22-802: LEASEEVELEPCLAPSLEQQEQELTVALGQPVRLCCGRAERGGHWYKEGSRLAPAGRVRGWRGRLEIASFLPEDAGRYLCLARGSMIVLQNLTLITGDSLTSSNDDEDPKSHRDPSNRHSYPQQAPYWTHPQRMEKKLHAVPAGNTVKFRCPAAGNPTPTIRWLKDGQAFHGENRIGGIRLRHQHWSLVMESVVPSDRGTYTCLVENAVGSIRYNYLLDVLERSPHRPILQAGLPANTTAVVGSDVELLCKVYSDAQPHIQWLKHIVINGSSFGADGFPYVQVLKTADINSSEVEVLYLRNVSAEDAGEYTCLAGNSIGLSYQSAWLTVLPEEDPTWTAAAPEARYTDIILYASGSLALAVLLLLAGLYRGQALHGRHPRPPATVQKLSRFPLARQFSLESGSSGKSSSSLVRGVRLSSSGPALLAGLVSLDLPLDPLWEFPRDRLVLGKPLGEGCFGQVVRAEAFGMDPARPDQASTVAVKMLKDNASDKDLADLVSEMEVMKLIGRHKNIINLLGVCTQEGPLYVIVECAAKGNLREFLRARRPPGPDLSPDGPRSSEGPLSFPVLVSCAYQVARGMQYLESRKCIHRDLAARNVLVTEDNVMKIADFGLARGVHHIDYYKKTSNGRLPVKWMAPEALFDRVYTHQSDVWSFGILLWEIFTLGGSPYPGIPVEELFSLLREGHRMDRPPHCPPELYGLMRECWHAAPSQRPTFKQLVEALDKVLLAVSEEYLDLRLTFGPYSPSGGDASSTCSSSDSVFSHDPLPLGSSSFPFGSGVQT
UniProt O43318: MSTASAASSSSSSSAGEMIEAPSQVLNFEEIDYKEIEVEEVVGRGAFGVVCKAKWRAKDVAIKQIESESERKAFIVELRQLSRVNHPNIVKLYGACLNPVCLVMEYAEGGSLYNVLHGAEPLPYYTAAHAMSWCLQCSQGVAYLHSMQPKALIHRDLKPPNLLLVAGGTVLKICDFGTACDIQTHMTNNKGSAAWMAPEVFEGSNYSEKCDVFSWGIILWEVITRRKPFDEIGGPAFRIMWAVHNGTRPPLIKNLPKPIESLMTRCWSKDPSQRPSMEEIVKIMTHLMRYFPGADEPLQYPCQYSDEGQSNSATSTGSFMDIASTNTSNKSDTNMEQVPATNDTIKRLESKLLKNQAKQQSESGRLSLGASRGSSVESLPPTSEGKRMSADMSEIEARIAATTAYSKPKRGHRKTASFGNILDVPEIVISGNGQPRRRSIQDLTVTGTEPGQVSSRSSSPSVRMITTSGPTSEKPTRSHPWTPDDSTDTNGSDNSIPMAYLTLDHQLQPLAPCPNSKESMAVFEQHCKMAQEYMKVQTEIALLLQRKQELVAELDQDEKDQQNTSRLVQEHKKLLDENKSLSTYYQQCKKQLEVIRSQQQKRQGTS

Measured: binding

TGFβ-activated kinase 1 (TAK1), endogenous (from UniProt O43318 1-606)
binds: all assays above
